Experimental data taken from patent EP1671630A2, “L-Arginine based formulations for treating diseases and methods of using the same” (Angiogenix, Inc., priority 1999, dated 2000).
For at least one compound, name, drawing or mass did not settle the structure.

Target: T1, nitric oxide synthase (NOS) (Bos taurus, UniProt P29473)
T1 construct: DOX activity as a NOS agonist was investigated in cultured bovine aortic EC; endogenous in cells; host or cells: cultured bovine aortic endothelial cells
Experiment: NO production in cultured endothelial cells (oxyhemoglobin to methemoglobin conversion and NO sensitive electrode)
Assay type: cell-based, bovine
Conditions: acetylcholine, positive control
Excerpt: Doxazosin, a selective alpha-1 blocker, is pharmacologically similar to prazosin and terazosin. It has been shown that selective alpha-1 blockers lower total and LDL cholesterol. Thus, these selective alpha-1 blockers may be useful in treating both hypertension and hypercholesterolemia. […] In fact, a wide variety of vasoactive agents (e.g. bradykinin, muscarinic agonists and growth factors) which increase tPA levels are also agonists of nitric oxide synthase (NOS). DOX activity as a NOS agonist was investigated in cultured bovine aortic EC using two methods to assess NO production: conversion of oxyhemoglobin to methamoglobin and a NO sensitive electrode. […]
Methemoglobin - The effect of DOX on NO production in EC was determined using a photometric assay for conversion of oxyhemoglobin to methemoglobin. […] Perfusate is then directed into a flow-through cuvette in a dual wavelength spectrophotometer and change in absorbancy (415/405 nm) is measured. Experimental stimulation was carried out by 3 min infusion periods of DOX added to buffer perfusion to yield final concentrations of 10^-7 and 10^-6 M. For analysis, we determined the area under the curve for the change in absorbancy response/min caused by DOX assuming a one to one correspondence for NO and metHb production, the known stoichiometric balance for this reaction. […]

With CC(=O)OCC[N+](C)(C)C [Acetylcholine, acetylcholine] as the compound, how does the NO production read?
Its NO production is “dose-related increase”.
